Source: the supplement of paper PMC10338343
± gives the standard deviation. The entries are a selection whose mix differs from that of the whole data set. Many of these values have a large error. The list shows a part of the results.

Experiments:
[1] = test system: MILI (PIWIL2) piRISC loaded with L1MC piRNA (26 nt); assay: pre-steady-state target cleavage rate (min^-1); higher = faster piRNA-guided slicing of the target; settings: guide: L1MC piRNA 5'p-UAACUAAAUACUAUGCAAGCUGUAGG
Outline: (§1)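 The pre-steady-state cleavage rate was calculated from a burst-and-steady-state fit. Data came from Cleave-'n-Seq, in which […] transcribed, DNA-blocked target RNA library was mixed with 1 nM active affinity-purified piRISC carrying one synthetic guide, with or without 500 nM GTSF1 partner protein, in HEPES–potassium acetate buffer at 33 °C for 0–8 or 0–960 min. Uncleaved targets were sequenced and normalised to depth and to weakly complementary targets, three trials were pooled, and k3 was capped at 0.0001 min^-1.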

[2] = test system: EfPiwi piRISC loaded with L1MC piRNA (26 nt); assay: pre-steady-state target cleavage rate (min^-1); guide: L1MC piRNA 5'p-UAACUAAAUACUAUGCAAGCUGUAGG; higher = faster piRNA-guided slicing of the target
Outline: as §1

[3] = test system: MIWI (PIWIL1) piRISC loaded with L1MC piRNA (30 nt); assay: pre-steady-state target cleavage rate (min^-1); MIWI and MILI are mouse PIWI proteins and EfPiwi is from a freshwater sponge; tags in brackets are library labels; higher = faster piRNA-guided slicing of the target; settings: guide: L1MC piRNA 5'p-UAACUAAAUACUAUGCAAGCUGUAGGUCCU
Outline: as §1

[4] = auxiliary factor: none (no GTSF1)
[5] = auxiliary factor: 500 nM Ephydatia muelleri Gtsf1
[6] = auxiliary factor: 500 nM mouse GTSF1
[7] = auxiliary factor: none (no Gtsf1)

## UCCUGGAUGUCGAACGAUAGUAUAUAGUUA
[1]; [4]
  pre-steady-state target cleavage rate: 0.000134 ± 0.033
[2]; [5]
  pre-steady-state target cleavage rate: 0.000129 ± 0.032

## UCCUCCUACAGCUUGCAUAGAAAUUAGUUA
[3]; [6]
  pre-steady-state target cleavage rate: 0.169 ± 0.019
[3]; [4]
  pre-steady-state target cleavage rate: 0.00268 ± 0.0024
[2]; [5]
  pre-steady-state target cleavage rate: 0.00254 ± 0.0029
[2]; [7]
  pre-steady-state target cleavage rate: 0.00124 ± 0.0069

## UCCUGGAACUGCUAGCAUAGUAUUUAGUUA
[3]; [6]
  pre-steady-state target cleavage rate: 0.534 ± 0.037
[3]; [4]
  pre-steady-state target cleavage rate: 0.00949 ± 0.0035
[2]; [5]
  pre-steady-state target cleavage rate: 0.0171 ± 0.0058
[2]; [7]
  pre-steady-state target cleavage rate: 0.0012 ± 0.0073

## UCCUGCAACAGCUUCCAUAGUAUUUAGUUA
[3]; [6]
  pre-steady-state target cleavage rate: 0.0524 ± 0.015
[3]; [4]
  pre-steady-state target cleavage rate: 0.00266 ± 0.0028
[2]; [5]
  pre-steady-state target cleavage rate: 0.00273 ± 0.0014
[2]; [7]
  pre-steady-state target cleavage rate: 0.000467 ± 0.01

## UCCUGCUACAGCGUGCAUAGUAUUUAGUUA
[1]; [6]
  pre-steady-state target cleavage rate: 0.296 ± 0.02
[2]; [7]
  pre-steady-state target cleavage rate: 0.000759 ± 0.011

## UCCUGGAACACCUUGCAUAGAAUUUAGUUA
[1]; [4]
  pre-steady-state target cleavage rate: 0.00189 ± 0.0036
[2]; [5]
  pre-steady-state target cleavage rate: 0.000777 ± 0.0062

## UCCUGGUACAGCUUACAUAGUAUUUAGUUA
[3]; [6]
  pre-steady-state target cleavage rate: 0.749 ± 0.056
[3]; [4]
  pre-steady-state target cleavage rate: 0.0246 ± 0.0048
[2]; [5]
  pre-steady-state target cleavage rate: 0.0283 ± 0.0076
[2]; [7]
  pre-steady-state target cleavage rate: 0.000699 ± 0.014

## UCCUGCUACAGCUUGGAUAGUAAUUAGUUA
[1]; [4]
  pre-steady-state target cleavage rate: 0.00265 ± 0.0029
[2]; [5]
  pre-steady-state target cleavage rate: 0.00773 ± 0.0024

## UCCUCCUAGAGCUUGCAUACUAUUUAGUUA
[1]; [4]
  pre-steady-state target cleavage rate: 0.00176 ± 0.0035
[2]; [7]
  pre-steady-state target cleavage rate: 0.00193 ± 0.0049

## UCCUGGAUGAGCUACGAUAGUAUUUAGAAA
[3]; [6]
  pre-steady-state target cleavage rate: 0.00063 ± 0.015
[3]; [4]
  pre-steady-state target cleavage rate: 0.000742 ± 0.0072
[2]; [5]
  pre-steady-state target cleavage rate: 0.000953 ± 0.0078
[2]; [7]
  pre-steady-state target cleavage rate: 0.000485 ± 0.013

## UCCUGGAUGAGCUUGCAUGGUAUUUAGUUA
[3]; [6]
  pre-steady-state target cleavage rate: 0.743 ± 0.043
[3]; [4]
  pre-steady-state target cleavage rate: 0.0817 ± 0.02
[2]; [5]
  pre-steady-state target cleavage rate: 0.0127 ± 0.0045
[2]; [7]
  pre-steady-state target cleavage rate: 0.000974 ± 0.011

## UCCUGGAUCAGCUUGCAUAGUAUUUAGUCA
[1]; [6]
  pre-steady-state target cleavage rate: 0.285 ± 0.019
[2]; [5]
  pre-steady-state target cleavage rate: 0.0102 ± 0.0044

## UCCUGGAUGUCGUUGCAUAGUAGUUAGUUA
[3]; [6]
  pre-steady-state target cleavage rate: 0.000259 ± 0.017
[3]; [4]
  pre-steady-state target cleavage rate: 0.00158 ± 0.0059
[2]; [5]
  pre-steady-state target cleavage rate: 0.0019 ± 0.0041
[2]; [7]
  pre-steady-state target cleavage rate: 0.00386 ± 0.0051

## UCCUGGAUGUGCAUGCAUAGUAUUUAGAAA
[3]; [6]
  pre-steady-state target cleavage rate: 0.00306 ± 0.0036
[3]; [4]
  pre-steady-state target cleavage rate: 0.00207 ± 0.0036
[2]; [5]
  pre-steady-state target cleavage rate: 0.00304 ± 0.0022
[2]; [7]
  pre-steady-state target cleavage rate: 0.00073 ± 0.0099

## UCCUGGAUGAGGAAGCAUAGUAUUUAGUAA
[3]; [6]
  pre-steady-state target cleavage rate: 0.00364 ± 0.0038
[3]; [4]
  pre-steady-state target cleavage rate: 0.00153 ± 0.0042
[2]; [5]
  pre-steady-state target cleavage rate: 0.000423 ± 0.011
[2]; [7]
  pre-steady-state target cleavage rate: 0.000156 ± 0.022

## UCCUGGAUCACCUUGCAUAGUAUUUAGUAA
[1]; [4]
  pre-steady-state target cleavage rate: 0.00253 ± 0.003
[2]; [5]
  pre-steady-state target cleavage rate: 0.00344 ± 0.0031

## UCCUGGUACAGCUAGCAUAGUAUUUAGAUA
[1]; [4]
  pre-steady-state target cleavage rate: 0.0026 ± 0.0033
[2]; [5]
  pre-steady-state target cleavage rate: 0.00618 ± 0.0029

## UCCUGCUACAGCUUGCAUACAAUUUACAAA
[1]; [4]
  pre-steady-state target cleavage rate: 0.000228 ± 0.012
[2]; [5]
  pre-steady-state target cleavage rate: 0.00101 ± 0.009

## UCCUGCUACACCUUGCAUAGUAUUUAGAAA
[1]; [4]
  pre-steady-state target cleavage rate: 0.00119 ± 0.0061
[2]; [5]
  pre-steady-state target cleavage rate: 0.00176 ± 0.0023

## UCCUGGAUGAGCUUGCAUAGUAUUUAGAAA
[1]; [4]
  pre-steady-state target cleavage rate: 0.00208 ± 0.0032
[2]; [5]
  pre-steady-state target cleavage rate: 0.00648 ± 0.0025

## UCCUGGAACAGCUAGCAUAGUAUUUAGAUA
[1]; [4]
  pre-steady-state target cleavage rate: 0.00217 ± 0.0034
[2]; [7]
  pre-steady-state target cleavage rate: 0.00045 ± 0.016

## UCCUGCUACAGCUUGCAUAGUAAAAUCAAA
[1]; [4]
  pre-steady-state target cleavage rate: 0.000953 ± 0.0064
[2]; [5]
  pre-steady-state target cleavage rate: 0.00286 ± 0.0033

## UCCUGGAUCAGCUUGGCAUAGUAUUUAGUUA
[1]; [6]
  pre-steady-state target cleavage rate: 0.3 ± 0.061
[2]; [5]
  pre-steady-state target cleavage rate: 0.0127 ± 0.0034

## UCCUGGAACAGCUUCCAUAGUAUUUAGUUA
[1]; [4]
  pre-steady-state target cleavage rate: 0.00119 ± 0.0043
[2]; [7]
  pre-steady-state target cleavage rate: 0.000551 ± 0.011

## UCCUGGAUGUCGAACGUUAGUAUUAAGAUA
[1]; [4]
  pre-steady-state target cleavage rate: 0.000237 ± 0.017
[2]; [5]
  pre-steady-state target cleavage rate: 0.00022 ± 0.02

## UCCUGGAUCAGCUUGCAUACUAUUUAGUAA
[1]; [4]
  pre-steady-state target cleavage rate: 0.00144 ± 0.0052
[2]; [5]
  pre-steady-state target cleavage rate: 0.00398 ± 0.0023

## UCCUGGAUCAGCUUGCAUAGUUUUUAGUAA
[1]; [4]
  pre-steady-state target cleavage rate: 0.0013 ± 0.0063
[2]; [5]
  pre-steady-state target cleavage rate: 0.00477 ± 0.0025

## UCCUGGAUGUCGUUGCAUACUAUUUUGUUA
[1]; [4]
  pre-steady-state target cleavage rate: 0.000326 ± 0.019
[2]; [5]
  pre-steady-state target cleavage rate: 0.000162 ± 0.025

## UCCUGGAACAGCUUGCAUAGUUUUUAGUAA
[1]; [4]
  pre-steady-state target cleavage rate: 0.00209 ± 0.0034
[2]; [5]
  pre-steady-state target cleavage rate: 0.00724 ± 0.0029

## UCCUCGAUCAGCUUGCAUAGUAUUUACAAA
[1]; [4]
  pre-steady-state target cleavage rate: 0.00131 ± 0.0036
[2]; [5]
  pre-steady-state target cleavage rate: 0.00554 ± 0.003

## UCCUGGAACAGCUUGCAUAGCAUUUAGUUA
[1]; [4]
  pre-steady-state target cleavage rate: 0.00216 ± 0.0037
[2]; [7]
  pre-steady-state target cleavage rate: 0.00101 ± 0.0094

## UCCUGGAUGUGCUAGCAUAGUAUUUACUUA
[1]; [4]
  pre-steady-state target cleavage rate: 0.00225 ± 0.0034
[2]; [5]
  pre-steady-state target cleavage rate: 0.00228 ± 0.0047

## UCCUGGAUCAGCUCGCAUAGUAUUUAGUUA
[1]; [6]
  pre-steady-state target cleavage rate: 0.284 ± 0.019
[2]; [5]
  pre-steady-state target cleavage rate: 0.0549 ± 0.013
